Experimental data from patent US20080248024A1, “THERAPEUTIC AGENT FOR CANCER, INFLAMMATION, AND AUTO-IMMUNE DISEASE CONTAINING INHIBITOR OF ZINC FINGER PROTEIN 91” (Korea Research Institute of Bioscience and Biotechnology, priority 2007, published 2008).
Entries after “also recorded” stand apart in the source; their conditions may differ. At least one structure is not confirmed: it was looked up by name or label, or the drawing left a doubt.

Experiments:
ZFP91 = assay: TNF-α mediated ZFP91 expression in FLAG-ZFP91 expressing AGS cells, Western blotting; details: pre-treatment 30 minutes with KA 1, 10 ug/ml, celastrol 0.2, 2 ug/ml, parthenolide 0.5, 5 ug/ml, TNF-α 50 ng/ml 3 hours
HIF-1α = HIF-1α expression induced under 1% oxygen in AGS cells expressing ZFP91; details: AGS cells expressing ZFP91, 1% oxygen

## CC1=C(O)C(=O)C=C2C1=CC=C1[C@@]2(C)CC[C@@]2(C)[C@@H]3C[C@](C)(C(=O)O)CC[C@]3(C)CC[C@]12C [celastrol]
ZFP91
  TNF-α mediated ZFP91 expression: suppressed; also recorded: inhibited
HIF-1α
  HIF-1α expression / accumulation: suppressed; also recorded: inhibited; also recorded: significantly reduced
